The values below come from ChEMBL document CHEMBL4354803, “Synthesis and biological activity of structurally diverse phthalazine derivatives: A systematic review” (Bioorg Med Chem, 2019).

By UniProt entry, the sequences of proteins in these tests, tags left out. Where a name states a change or a piece, a line headed by the entry shows the natural chain unless it says otherwise.
UniProt P22303: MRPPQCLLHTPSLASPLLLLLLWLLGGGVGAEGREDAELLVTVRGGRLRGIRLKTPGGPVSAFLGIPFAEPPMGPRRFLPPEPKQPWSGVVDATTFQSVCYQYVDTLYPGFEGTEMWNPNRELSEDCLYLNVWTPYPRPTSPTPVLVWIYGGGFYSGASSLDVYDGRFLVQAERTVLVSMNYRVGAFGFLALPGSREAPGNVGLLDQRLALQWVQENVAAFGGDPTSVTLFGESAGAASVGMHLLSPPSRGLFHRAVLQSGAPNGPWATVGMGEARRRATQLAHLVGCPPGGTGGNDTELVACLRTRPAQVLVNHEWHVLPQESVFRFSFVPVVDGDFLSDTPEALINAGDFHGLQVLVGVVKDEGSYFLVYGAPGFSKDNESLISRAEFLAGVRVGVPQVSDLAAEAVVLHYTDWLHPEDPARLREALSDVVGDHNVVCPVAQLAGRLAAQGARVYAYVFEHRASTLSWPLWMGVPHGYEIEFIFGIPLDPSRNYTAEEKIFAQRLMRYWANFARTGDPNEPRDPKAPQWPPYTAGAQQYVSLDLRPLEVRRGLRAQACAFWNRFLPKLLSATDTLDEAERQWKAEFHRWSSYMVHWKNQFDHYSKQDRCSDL

A word on the Ki: it is the dissociation constant of the complex between target and ligand, obtained from inhibition or displacement.

The target of this assay is Acetylcholinesterase (Homo sapiens, UniProt P22303).
In turn, `NS(=O)(=O)c1ccc(C(=O)n2[nH]c(=O)c3cc(F)ccc3c2=O)cc1` showed a Ki of 60.8 to 250 nM.
For `NS(=O)(=O)c1ccc(C(=O)n2[nH]c(=O)c3cc([N+](=O)[O-])ccc3c2=O)cc1` the value was 60.8 to 250 nM.
For `NS(=O)(=O)c1ccc(C(=O)n2[nH]c(=O)c3c([N+](=O)[O-])cccc3c2=O)cc1` the value was 60.8 to 250 nM; for `NS(=O)(=O)c1ccc(C(=O)n2[nH]c(=O)c3ccc(C(=O)O)cc3c2=O)cc1`, 60.8 to 250 nM; for `NS(=O)(=O)c1ccc(C(=O)n2[nH]c(=O)c3c(F)cccc3c2=O)cc1`, 60.8 to 250 nM.
